Laboratory results: PubChem BioAssay AID743454 (Peter MacCallum Cancer Centre, 2014)
Purpose: 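Search for knock-downs that restore vorinostat killing in resistant colon cancer cells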 (primary screen). Cell system: human HCT116-VR colon cancer cells, selected for vorinostat resistance. Reagents: siRNA pool against human genes, 40 nM siRNA pool. Time to read-out: vorinostat for 24 h, read-out about 72 h after transfection. Treatment: vorinostat at 2.5 µM final. Detection: 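Two measures, CellTiter-Fluor viability and luminescent caspase 3/7 activity, each as fold change against same-plate mock wells, mean of duplicates, then screen-wide robust z-score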. Scale: viability robust z-score: higher = more viable cells than screen typical; caspase robust z-score: higher = more caspase 3/7 activity than screen typical. Call rule: 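a knock-down is a hit when classed RV1 or RV2 for lowered viability, or CA1 or CA2 for caspase activation; those lethal without drug were dropped; hits were retested singly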.
The deposit covers about 18,000 reagents; below is a part drawn at random. In the full data, 450 (2.5%) were called active. 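Single biological run; no consistent viability z cut-off exists, so the class columns, not z-scores, define the calls.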 Unmarked entries are inactive.

| gene symbol | PubChem SID | viability hit class | caspase hit class | viability robust z-score | caspase robust z-score |
| --- | --- | --- | --- | --- | --- |
| HSPA1B | SID134309931 | no change | no change | 0.08 | -0.84 |
| ARF5 | SID152148411 | no change | no change | -1.25 | 3.42 |
| PCDHA12 | SID135622487 | no change | no change | -0.83 | -0.77 |
| RGS9BP | SID152147871 | no change | no change | -0.28 | 1.64 |
| SLC6A18 | SID134312382 | no change | no change | -1.32 | 0.17 |
| VWC2 | SID135624663 | no change | no change | -1.12 | -0.86 |
| CCN1 | SID134310345 | no change | no change | -0.24 | -0.85 |
| KNOP1 | SID152149415 | no change | no change | -0.66 | -0.88 |
| COLEC10 | SID134316505 | no change | no change | 0.35 | -0.6 |
| IL36R | SID134312900 | no change | no change | 0.9 | -0.69 |
| SLC12A2 | SID134312431 | no change | no change | 0.88 | 1.11 |
| RFXAP | SID134315463 | no change | no change | -0.5 | 2.02 |
| NFS1 | SID134315891 | no change | no change | 0.26 | -0.24 |
| CLIP4 | SID135623651 | no change | no change | -0.94 | 0.05 |
| ZSWIM4 | SID152155211 | no change | no change | -0.03 | -0.98 |
| LAD1 | SID134321180 | no change (active) | CA2 (caspase activation) | -0.84 | 6.77 |
| CDH22 | SID134317336 | no change | no change | 1.6 | 1.21 |
| OR51B4 | SID152156498 | no change | no change | 0.24 | -0.64 |
| ATP6V1E2 | SID134323216 | no change | no change | 1.26 | -0.72 |
| WDR33 | SID135623278 | no change | no change | -0.1 | -0.08 |
| PITX2 | SID152152538 | no change | no change | -0.52 | 0.56 |

Continued, starting with the last 2 of the part before.
| gene symbol | PubChem SID | viability hit class | caspase hit class | viability robust z-score | caspase robust z-score |
| --- | --- | --- | --- | --- | --- |
| WDR33 | SID135623278 | no change | no change | -0.1 | -0.08 |
| PITX2 | SID152152538 | no change | no change | -0.52 | 0.56 |
| MED31 | SID152146932 | no change | no change | -0.58 | -0.14 |
| PSMD12 | SID152147824 | RV2 (reduced viability) (active) | no change | -3.53 | 3.06 |
| LRP8 | SID135622201 | no change | no change | 0.34 | 1.17 |
| HCN3 | SID134325375 | no change | no change | 0.05 | 0.23 |
| RSPRY1 | SID135624310 | no change | no change | -1.22 | -0.89 |
| ANKRD27 | SID152147807 | no change | no change | 1.81 | 1.44 |
| SNRPB | SID134321677 | no change | no change | -3.92 | -0.14 |
| C14orf119 | SID134324893 | no change | no change | -0.54 | -0.55 |
| LSM10 | SID135622867 | no change | no change | 0.1 | 0.59 |
| SLC35A4 | SID134312586 | no change | no change | -0.37 | 1.88 |
| PRKACB | SID56478825 | no change | no change | 1.38 | 1.1 |
| RANBP6 | SID134326444 | no change | no change | 0.33 | 1.66 |
| KRABD3 | SID135624506 | no change | no change | -0.77 | 0.32 |
| UPF3B | SID134317121 | no change | no change | 0.26 | -1.1 |
| OR11H1 | SID134329889 | no change | no change | 0.18 | 0.64 |
| TRIM40 | SID152155285 | no change | no change | 0.09 | 2.48 |
| ZC3H7A | SID134321634 | no change | no change | -0.91 | -0.4 |
| CABLES2 | SID152153586 | no change | no change | -0.59 | 1.42 |
| FYRD1 | SID134319070 | no change | no change | 0.28 | 0.52 |
| N4BP2L1 | SID135622893 | no change | no change | 0.05 | 0.84 |
| POLG | SID134316911 | no change | no change | -0.01 | -0.7 |
| CIMAP2 | SID152153639 | no change | no change | -0.18 | 0.68 |
| TICAM1 | SID152152582 | no change | no change | -0.02 | 1.33 |
| KCNJ16 | SID134311664 | no change | no change | -0.75 | -0.88 |
| LRP1B | SID152147996 | no change | no change | 0.67 | -0.92 |
| NCDN | SID135622410 | no change | no change | 0.14 | 2.5 |
| ABRAXAS2 | SID152149577 | no change | no change | 1.36 | 0.15 |
| CUL4A | SID152147273 | no change | no change | 0.06 | -0.02 |
| RPP38-DT | SID134320600 | no change | no change | -1.4 | -1.24 |
| ZNF780A | SID135624398 | no change | no change | -0.08 | -1.21 |
| AZI2 | SID134318272 | no change | no change | 0.93 | -0.86 |
| DKK3 | SID152152827 | no change | no change | -1 | 2.31 |
| DPT | SID135622166 | no change | no change | 1.69 | 1.02 |
| CPA5 | SID152147897 | no change | no change | 0.6 | 0.36 |
| AASS | SID134314012 | no change | no change | 0.28 | -0.49 |
| CDC25A | SID135620641 | no change | no change | -0.08 | -0.42 |
